Assay results: PMC4891948
No constants are given. Whether binding was seen depends on the method and setting. Binding seen in cells or lysates may run through a third protein. Some binding calls cover weakened binding; strength is not graded here.

The chains behind the UniProt entries cited, without tags or fusion partners.
UniProt E2R766: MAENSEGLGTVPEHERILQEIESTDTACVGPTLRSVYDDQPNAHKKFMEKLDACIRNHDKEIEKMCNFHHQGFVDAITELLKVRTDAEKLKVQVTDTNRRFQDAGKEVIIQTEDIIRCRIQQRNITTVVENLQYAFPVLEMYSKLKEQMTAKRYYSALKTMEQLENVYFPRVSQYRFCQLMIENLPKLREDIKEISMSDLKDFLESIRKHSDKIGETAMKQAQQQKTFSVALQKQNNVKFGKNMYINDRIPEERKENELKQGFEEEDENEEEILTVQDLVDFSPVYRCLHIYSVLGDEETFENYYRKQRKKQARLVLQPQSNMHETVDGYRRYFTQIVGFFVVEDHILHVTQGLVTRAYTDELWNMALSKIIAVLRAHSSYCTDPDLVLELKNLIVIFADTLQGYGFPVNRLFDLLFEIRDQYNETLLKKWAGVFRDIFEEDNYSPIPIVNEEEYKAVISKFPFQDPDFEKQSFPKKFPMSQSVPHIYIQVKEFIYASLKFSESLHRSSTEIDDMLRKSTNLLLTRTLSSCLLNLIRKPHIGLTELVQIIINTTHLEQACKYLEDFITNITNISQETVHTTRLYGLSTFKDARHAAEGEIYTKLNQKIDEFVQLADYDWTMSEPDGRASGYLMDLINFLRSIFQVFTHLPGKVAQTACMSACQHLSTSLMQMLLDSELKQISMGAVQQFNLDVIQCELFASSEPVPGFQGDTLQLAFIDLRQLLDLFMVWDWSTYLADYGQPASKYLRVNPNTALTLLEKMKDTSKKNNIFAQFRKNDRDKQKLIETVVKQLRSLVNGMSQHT

Target: Sec6 (canine (endogenous in MDCK))
Assay: co-IP; MDCK RIPA lysates immunoprecipitated with cocktails of anti-Sec6 mAbs to N-terminal (NT1, NT2) or C-terminal (CT1, CT2, CT3) epitopes bound to Protein G Sepharose, 2 h at 4°C, stringent washes; immunoblot for exocyst subunits

Substance: Sec15 (from UniProt E2R766 1-803)
- binding: binds
